Test results from paper PMC5386292.
Results are given in words; binding and its absence hold for the method and conditions named. Binding seen in cells or lysates may run through a third protein. Some results given as binding are weak or reduced against the parent protein; the word gives no strength.

The chains behind the UniProt entries cited, without tags or fusion partners. Where a name states a change or a piece, a line headed by the entry shows the natural chain unless it says otherwise.
UniProt P10244: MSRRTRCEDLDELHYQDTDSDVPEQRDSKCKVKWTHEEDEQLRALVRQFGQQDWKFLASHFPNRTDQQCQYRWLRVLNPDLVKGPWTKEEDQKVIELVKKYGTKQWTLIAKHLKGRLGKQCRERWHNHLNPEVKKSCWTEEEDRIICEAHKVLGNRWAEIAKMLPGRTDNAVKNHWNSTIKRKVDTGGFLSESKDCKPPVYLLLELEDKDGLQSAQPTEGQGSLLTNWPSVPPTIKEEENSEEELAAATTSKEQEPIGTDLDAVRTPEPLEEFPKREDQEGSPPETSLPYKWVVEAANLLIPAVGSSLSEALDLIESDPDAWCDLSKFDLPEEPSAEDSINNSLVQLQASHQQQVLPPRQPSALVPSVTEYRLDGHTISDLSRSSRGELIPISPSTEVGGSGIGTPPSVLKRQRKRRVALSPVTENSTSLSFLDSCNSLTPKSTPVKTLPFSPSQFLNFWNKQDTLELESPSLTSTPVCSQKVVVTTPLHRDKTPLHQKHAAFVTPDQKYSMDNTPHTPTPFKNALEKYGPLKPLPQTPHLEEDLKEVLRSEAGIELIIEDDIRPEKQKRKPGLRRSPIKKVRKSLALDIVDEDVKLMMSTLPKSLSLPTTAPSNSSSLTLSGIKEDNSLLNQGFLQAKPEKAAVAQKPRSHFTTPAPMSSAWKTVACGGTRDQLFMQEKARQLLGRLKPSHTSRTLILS
UniProt Q99814: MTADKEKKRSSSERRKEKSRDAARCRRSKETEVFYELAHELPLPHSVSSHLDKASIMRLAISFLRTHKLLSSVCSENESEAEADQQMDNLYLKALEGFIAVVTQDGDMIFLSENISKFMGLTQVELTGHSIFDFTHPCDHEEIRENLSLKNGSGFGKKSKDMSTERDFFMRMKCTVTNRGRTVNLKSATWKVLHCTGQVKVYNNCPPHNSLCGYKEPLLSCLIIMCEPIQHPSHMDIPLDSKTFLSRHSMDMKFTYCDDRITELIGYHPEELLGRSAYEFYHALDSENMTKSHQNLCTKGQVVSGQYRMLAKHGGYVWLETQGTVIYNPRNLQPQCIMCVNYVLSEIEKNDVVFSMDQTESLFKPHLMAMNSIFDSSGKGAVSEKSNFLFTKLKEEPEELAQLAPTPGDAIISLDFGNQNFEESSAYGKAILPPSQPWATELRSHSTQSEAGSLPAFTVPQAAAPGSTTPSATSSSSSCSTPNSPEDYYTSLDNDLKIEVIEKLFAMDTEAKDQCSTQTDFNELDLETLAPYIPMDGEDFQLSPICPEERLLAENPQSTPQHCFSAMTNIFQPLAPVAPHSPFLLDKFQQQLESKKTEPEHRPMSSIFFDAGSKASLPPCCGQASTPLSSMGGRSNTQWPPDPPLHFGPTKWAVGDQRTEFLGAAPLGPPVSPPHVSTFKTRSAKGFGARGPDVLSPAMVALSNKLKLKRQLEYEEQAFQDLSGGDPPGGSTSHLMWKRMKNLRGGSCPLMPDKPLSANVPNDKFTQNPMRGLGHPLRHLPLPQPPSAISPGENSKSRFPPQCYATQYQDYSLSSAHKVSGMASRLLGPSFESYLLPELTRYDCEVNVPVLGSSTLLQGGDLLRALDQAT

How the values were obtained:
[1] = target: 3×HA-B-Myb, full length (human) (UniProt P10244); test: co-IP; 3×FLAG-HIF-2α and 3×HA-B-Myb (wild type or deletion mutants) coexpressed in HEK293T cells; lysates immunoprecipitated with anti-HA, immunoblotted with anti-FLAG or anti-HA
[2] = target: Hypoxia-inducible factor-2α (endogenous) (human (endogenous in 786-O)) (UniProt Q99814); test: co-IP; endogenous proteins; nuclear fraction of 786-O cells, IP with anti-HIF-2α, immunoblot anti-B-Myb
[3] = target: Hypoxia-inducible factor-2α (endogenous) (human (endogenous in 786-O)) (UniProt Q99814); test: co-IP; endogenous proteins; 786-O cell lysates immunoprecipitated with an anti-HIF-2α antibody, immunoblotted with anti-B-Myb or anti-HIF-2α

| binding [1] | binding [2] | binding [3] | Substance |
| --- | --- | --- | --- |
| binds |  |  | 3×FLAG-HIF-2α, full length (from UniProt Q99814 1-870) |
| binds |  |  | 3×FLAG-HIF-2α(436–870) (from UniProt Q99814 436-870) (domain or fragment) |
|  | binds | binds | Myb-related protein 2 (endogenous) (from UniProt P10244 1-700) |
